Reference: PMC6042963
These are yes or no findings as the source states them, for the method shown. Binding seen in cells or lysates may run through a third protein. These calls come from enrichment with a bait or labelling near it, and not all partners need be listed. For some of these results: A no says only that the protein was not detected with the bait. For some of these results: Sequences can lack the tags named with a protein. One block for each binder: values may come before it.

Amino acid sequences for entries named in this document (tags omitted).
UniProt Q8VEK2: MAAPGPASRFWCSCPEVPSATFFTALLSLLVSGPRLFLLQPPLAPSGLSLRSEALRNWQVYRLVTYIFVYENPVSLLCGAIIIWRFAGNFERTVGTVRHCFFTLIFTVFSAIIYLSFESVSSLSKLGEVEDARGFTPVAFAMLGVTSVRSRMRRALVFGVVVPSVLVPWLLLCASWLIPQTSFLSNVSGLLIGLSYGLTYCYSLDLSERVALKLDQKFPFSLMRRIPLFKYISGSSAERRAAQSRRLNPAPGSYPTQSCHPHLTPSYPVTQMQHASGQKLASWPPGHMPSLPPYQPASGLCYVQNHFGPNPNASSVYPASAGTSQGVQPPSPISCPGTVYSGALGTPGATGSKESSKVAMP
UniProt Q9Y3P4: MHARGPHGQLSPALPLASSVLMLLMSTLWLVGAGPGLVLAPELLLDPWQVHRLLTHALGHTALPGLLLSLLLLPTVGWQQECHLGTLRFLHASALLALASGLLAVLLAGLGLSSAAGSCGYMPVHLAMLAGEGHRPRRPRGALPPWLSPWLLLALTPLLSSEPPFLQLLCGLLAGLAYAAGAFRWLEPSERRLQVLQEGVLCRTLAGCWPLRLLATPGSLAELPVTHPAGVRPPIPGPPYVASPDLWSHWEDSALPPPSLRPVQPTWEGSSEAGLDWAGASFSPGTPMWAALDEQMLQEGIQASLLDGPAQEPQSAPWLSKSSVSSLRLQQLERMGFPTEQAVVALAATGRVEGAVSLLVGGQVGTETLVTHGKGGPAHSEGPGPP

Tests used:
[1] = target: T1, HA-tagged mouse Ubac2 (mouse) (UniProt Q8R1K1); experiment: affinity purification with mass spectrometry; anti-HA immunoprecipitates from HEK 293ET lines stably expressing HA-tagged rhomboid-like proteins, cells untreated or treated with the crosslinker DSP (0.2 mg/mL); LC-MS/MS
T1 sequence: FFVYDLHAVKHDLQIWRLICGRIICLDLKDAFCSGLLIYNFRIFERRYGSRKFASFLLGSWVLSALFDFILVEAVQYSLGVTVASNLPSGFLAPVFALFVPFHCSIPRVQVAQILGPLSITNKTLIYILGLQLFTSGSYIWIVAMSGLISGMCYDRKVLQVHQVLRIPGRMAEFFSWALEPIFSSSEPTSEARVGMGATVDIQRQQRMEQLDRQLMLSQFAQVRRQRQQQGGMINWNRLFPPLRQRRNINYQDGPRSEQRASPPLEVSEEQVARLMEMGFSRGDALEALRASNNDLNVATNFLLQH

[2] = target: T2, HA-tagged full-length mouse iRhom2 (mouse) (UniProt Q80WQ6); experiment: as above
T2 sequence: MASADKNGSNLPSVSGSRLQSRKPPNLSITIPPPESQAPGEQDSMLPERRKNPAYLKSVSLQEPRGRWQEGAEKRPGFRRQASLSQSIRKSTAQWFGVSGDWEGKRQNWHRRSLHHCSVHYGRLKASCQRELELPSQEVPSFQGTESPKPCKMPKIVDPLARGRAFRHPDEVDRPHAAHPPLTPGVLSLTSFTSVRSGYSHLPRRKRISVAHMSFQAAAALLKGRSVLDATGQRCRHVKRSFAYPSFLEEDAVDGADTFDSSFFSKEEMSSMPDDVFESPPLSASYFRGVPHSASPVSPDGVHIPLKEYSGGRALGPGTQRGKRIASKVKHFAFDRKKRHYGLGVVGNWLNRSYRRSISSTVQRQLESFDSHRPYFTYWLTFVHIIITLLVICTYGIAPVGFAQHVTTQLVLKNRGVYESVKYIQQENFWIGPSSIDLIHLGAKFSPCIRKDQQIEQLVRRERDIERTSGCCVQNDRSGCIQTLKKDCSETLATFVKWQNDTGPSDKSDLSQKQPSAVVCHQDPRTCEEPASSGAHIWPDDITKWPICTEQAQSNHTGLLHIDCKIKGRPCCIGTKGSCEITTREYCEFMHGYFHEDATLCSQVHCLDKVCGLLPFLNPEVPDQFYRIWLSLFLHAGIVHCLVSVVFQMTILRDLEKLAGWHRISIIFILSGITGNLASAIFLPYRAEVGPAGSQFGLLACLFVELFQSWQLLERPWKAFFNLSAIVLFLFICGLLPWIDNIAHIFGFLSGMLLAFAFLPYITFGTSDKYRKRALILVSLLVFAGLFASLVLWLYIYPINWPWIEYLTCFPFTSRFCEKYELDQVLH

[3] = target: HA-tagged mouse Rhbdd2 (mouse) (UniProt Q8VEK2); experiment: as above
[4] = target: HA-tagged human RHBDD3 (human) (UniProt Q9Y3P4); experiment: as above
[5] = target: T3, HA-tagged full-length human iRhom1 (human) (UniProt Q96CC6); experiment: as above
T3 sequence: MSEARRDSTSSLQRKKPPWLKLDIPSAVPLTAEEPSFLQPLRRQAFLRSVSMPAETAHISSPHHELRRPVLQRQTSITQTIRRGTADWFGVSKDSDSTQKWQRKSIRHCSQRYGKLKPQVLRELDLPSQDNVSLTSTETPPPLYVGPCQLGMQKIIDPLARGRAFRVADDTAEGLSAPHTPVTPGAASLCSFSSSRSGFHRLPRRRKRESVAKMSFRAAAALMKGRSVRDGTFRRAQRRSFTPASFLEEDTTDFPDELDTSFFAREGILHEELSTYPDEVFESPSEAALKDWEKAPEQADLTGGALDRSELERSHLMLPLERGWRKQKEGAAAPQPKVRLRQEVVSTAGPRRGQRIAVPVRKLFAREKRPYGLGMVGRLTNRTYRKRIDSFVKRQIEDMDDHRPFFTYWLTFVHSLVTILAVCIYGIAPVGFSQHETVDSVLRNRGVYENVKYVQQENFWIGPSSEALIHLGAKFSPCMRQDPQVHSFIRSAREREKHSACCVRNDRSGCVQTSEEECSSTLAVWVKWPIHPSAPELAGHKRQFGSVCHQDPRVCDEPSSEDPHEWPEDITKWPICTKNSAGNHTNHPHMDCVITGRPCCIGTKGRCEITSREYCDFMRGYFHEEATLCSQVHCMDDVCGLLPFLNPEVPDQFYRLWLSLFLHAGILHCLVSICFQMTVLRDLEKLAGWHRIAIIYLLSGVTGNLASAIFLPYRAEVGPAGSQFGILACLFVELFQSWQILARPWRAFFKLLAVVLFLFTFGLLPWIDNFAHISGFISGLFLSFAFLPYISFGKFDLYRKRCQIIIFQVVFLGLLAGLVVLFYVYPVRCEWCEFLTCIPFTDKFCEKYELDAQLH

[6] = target: T4, HA-tagged cytoplasmic N-terminus of human iRhom1 (amino acids 1-404) (human) (UniProt Q96CC6); experiment: as above
T4 sequence: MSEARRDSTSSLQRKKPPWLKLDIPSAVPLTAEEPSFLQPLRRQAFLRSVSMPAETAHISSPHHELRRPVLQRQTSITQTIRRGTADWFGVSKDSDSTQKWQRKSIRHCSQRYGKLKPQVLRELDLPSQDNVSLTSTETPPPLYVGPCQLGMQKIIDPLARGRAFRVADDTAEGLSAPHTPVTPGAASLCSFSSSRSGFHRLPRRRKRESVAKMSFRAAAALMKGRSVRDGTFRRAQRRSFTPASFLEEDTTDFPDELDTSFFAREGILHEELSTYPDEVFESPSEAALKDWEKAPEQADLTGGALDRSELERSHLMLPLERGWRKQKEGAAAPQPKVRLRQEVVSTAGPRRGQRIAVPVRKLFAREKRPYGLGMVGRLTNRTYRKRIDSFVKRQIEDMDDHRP

[7] = target: STING-FLAG (human), Q86WV6; experiment: affinity purification with mass spectrometry; anti-FLAG M2 Affinity Gel immunoprecipitates from HEK 293ET transfected with FLAG-tagged proteins; on-bead trypsin digest, mass spectrometry; details: remark: other sources report otherwise

binding [1]: no binding
binding [2]: binds
binding [3]: no binding
binding [4]: no binding
binding [5]: binds
binding [6]: binds
B1: endogenous FRMD8 (FERM Domain-containing protein 8), named iTAP (iRhom Tail-Associated Protein) (protein, UniProt Q9BZ67 1-464)
chain: MDGTEGSAGQPGPAERSHRSSVSSVGARAADVLVYLADDTVVPLAVENLPSLSAHELHRAVREVLQLPDIALDVFALWLVSPLLEVQLKPKHQPYKLGRQWPELLLRFTSAPDDDVAMDEPFLQFRRNVFFPKRRELQIHDEEVLRLLYEEAKGNVLAARYPCDVEDCEALGALVCRVQLGPYQPGRPAACDLREKLDSFLPAHLCKRGQSLFAALRGRGARAGPGEQGLLNAYRQVQEVSSDGGCEAALGTHYRAYLLKCHELPFYGCAFFHGEVDKPAQGFLHRGGRKPVSVAISLEGVHVIDSREKHVLLGLRFQELSWDHTSPEEEEPILWLEFDGDSEGTPVNKLLKIYSKQAELMSSLIEYCIELSQAAEPAGPQDSATGSPSDPSSSLAPVQRPKLRRQGSVVSSRIQHLSTIDYVEDGKGIRRVKPKRTTSFFSRQLSLGQGSYTVVQPGDSLEQG

binding [7]: no binding
B2: endogenous iRhom2, Q6PJF5 1-856 (protein)
chain: MASADKNGGSVSSVSSSRLQSRKPPNLSITIPPPEKETQAPGEQDSMLPEGFQNRRLKKSQPRTWAAHTTACPPSFLPKRKNPAYLKSVSLQEPRSRWQESSEKRPGFRRQASLSQSIRKGAAQWFGVSGDWEGQRQQWQRRSLHHCSMRYGRLKASCQRDLELPSQEAPSFQGTESPKPCKMPKIVDPLARGRAFRHPEEMDRPHAPHPPLTPGVLSLTSFTSVRSGYSHLPRRKRMSVAHMSLQAAAALLKGRSVLDATGQRCRVVKRSFAFPSFLEEDVVDGADTFDSSFFSKEEMSSMPDDVFESPPLSASYFRGIPHSASPVSPDGVQIPLKEYGRAPVPGPRRGKRIASKVKHFAFDRKKRHYGLGVVGNWLNRSYRRSISSTVQRQLESFDSHRPYFTYWLTFVHVIITLLVICTYGIAPVGFAQHVTTQLVLRNKGVYESVKYIQQENFWVGPSSIDLIHLGAKFSPCIRKDGQIEQLVLRERDLERDSGCCVQNDHSGCIQTQRKDCSETLATFVKWQDDTGPPMDKSDLGQKRTSGAVCHQDPRTCEEPASSGAHIWPDDITKWPICTEQARSNHTGFLHMDCEIKGRPCCIGTKGSCEITTREYCEFMHGYFHEEATLCSQVHCLDKVCGLLPFLNPEVPDQFYRLWLSLFLHAGVVHCLVSVVFQMTILRDLEKLAGWHRIAIIFILSGITGNLASAIFLPYRAEVGPAGSQFGLLACLFVELFQSWPLLERPWKAFLNLSAIVLFLFICGLLPWIDNIAHIFGFLSGLLLAFAFLPYITFGTSDKYRKRALILVSLLAFAGLFAALVLWLYIYPINWPWIEHLTCFPFTSRFCEKYELDQVLH
